Experimental data from paper PMC8941131.
Substitutions are numbered along the chain they refer to. No constants are given. Whether binding was seen depends on the method and setting. Binding seen in cells or lysates may run through a third protein. Some binding calls cover weakened binding; strength is not graded here. Where a sequence is shown, tags or fusion partners need not be part of it.

The chains behind the UniProt entries cited, without tags or fusion partners.
UniProt P31749: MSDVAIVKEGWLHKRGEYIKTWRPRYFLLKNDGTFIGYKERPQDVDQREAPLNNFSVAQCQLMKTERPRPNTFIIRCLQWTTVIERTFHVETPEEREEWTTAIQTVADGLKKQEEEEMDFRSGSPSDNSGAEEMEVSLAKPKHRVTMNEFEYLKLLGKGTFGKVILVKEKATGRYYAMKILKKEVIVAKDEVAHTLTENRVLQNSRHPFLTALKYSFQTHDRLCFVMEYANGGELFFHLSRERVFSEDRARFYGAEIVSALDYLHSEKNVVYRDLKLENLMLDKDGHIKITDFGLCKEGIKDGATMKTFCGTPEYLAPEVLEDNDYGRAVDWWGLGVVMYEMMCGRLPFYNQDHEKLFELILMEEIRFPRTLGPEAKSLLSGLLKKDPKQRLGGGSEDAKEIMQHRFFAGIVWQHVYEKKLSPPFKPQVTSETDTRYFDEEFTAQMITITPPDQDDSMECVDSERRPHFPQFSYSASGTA

Legend:
Test in all cases: co-IP; immunoprecipitation (anti-Flag or anti-HA agarose, 2-4 h at 4 °C) from whole cell lysates of co-transfected 293T cells; EBC lysis buffer, four washes with NETN buffer, immunoblot; in some panels with HA-S6K1-R3A or knock-down of 14-3-3γ
Flag-PDK1-S549D = target: T1, Flag-PDK1-S549D (UniProt O15530)
T1 sequence: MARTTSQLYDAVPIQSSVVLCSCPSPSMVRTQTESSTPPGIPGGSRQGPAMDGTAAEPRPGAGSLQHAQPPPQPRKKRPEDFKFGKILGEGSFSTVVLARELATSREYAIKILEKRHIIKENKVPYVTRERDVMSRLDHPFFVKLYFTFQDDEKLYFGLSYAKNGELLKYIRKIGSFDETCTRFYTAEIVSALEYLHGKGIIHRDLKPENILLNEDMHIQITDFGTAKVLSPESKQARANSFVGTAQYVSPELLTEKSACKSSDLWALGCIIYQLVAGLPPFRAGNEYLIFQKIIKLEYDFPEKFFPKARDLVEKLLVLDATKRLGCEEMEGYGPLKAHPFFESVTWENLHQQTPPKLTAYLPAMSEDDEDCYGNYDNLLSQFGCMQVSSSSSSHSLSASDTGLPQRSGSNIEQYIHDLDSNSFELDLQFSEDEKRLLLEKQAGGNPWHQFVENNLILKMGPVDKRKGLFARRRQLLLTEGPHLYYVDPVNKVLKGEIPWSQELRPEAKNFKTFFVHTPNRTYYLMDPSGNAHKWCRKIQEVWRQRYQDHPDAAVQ

Flag-PDK1-R544K = target: T2, Flag-PDK1-R544K (UniProt O15530)
T2 sequence: T1 sequence with R544K, D549S

Flag-PDK1-S549A = target: T3, Flag-PDK1-S549A (UniProt O15530)
T3 sequence: T1 sequence with D549A

Flag-PDK1-P551L = target: T4, Flag-PDK1-P551L (UniProt O15530)
T4 sequence: T1 sequence with D549S, P551L

Measured: binding

HA-AKT1 (from UniProt P31749 1-480) (enzyme)
binds: Flag-PDK1-S549D | Flag-PDK1-R544K | Flag-PDK1-S549A | Flag-PDK1-P551L
